Assay results from the supplement of paper PMC8728848.
This is one part of the list.

Columns and labels:
Experiment in all cases: glycan array binding signal (z-score within array); higher = stronger binding
Details in all cases: glycan notation: IUPAC condensed, linker removed
[1] = molecular target: Neu5Ac(a2-6)Gal(b1-4)GlcNAc(b1-3)Gal(b1-4)GlcNAc(b1-3)GalNAc
How it was run: (§1)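 The binding signal is a Z-score computed within each array and averaged over linkers. Arrays of the same protein sequence at different concentrations or buffers were also averaged together. Data originate from 3228 arrays in the Consortium for Functional Glycomics database, kept only where the protein sequence was available.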

[2] = molecular target: Neu5Ac(a2-6)Gal(b1-4)GlcNAc(b1-3)Gal(b1-4)GlcNAc(b1-3)[Neu5Ac(a2-6)Gal(b1-4)GlcNAc(b1-3)Gal(b1-4)GlcNAc(b1-6)]GalNAc
How it was run: as §1

[3] = molecular target: Neu5Ac(a2-6)Gal(b1-4)GlcNAc(b1-3)Gal(b1-4)GlcNAc(b1-6)[Gal(b1-3)]GalNAc
How it was run: as §1

[4] = molecular target: Neu5Ac(a2-6)Gal(b1-4)GlcNAc(b1-3)Gal(b1-4)[Fuc(a1-3)]GlcNAc(b1-3)Gal(b1-4)[Fuc(a1-3)]GlcNAc
How it was run: as §1

[5] = molecular target: Neu5Ac(a2-6)Gal(b1-4)GlcNAc(b1-3)GalNAc
How it was run: as §1

[6] = molecular target: Neu5Ac(a2-6)Gal(b1-4)GlcNAc(b1-3)[Neu5Ac(a2-6)Gal(b1-4)GlcNAc(b1-6)]GalNAc
How it was run: as §1

[7] = molecular target: Neu5Ac(a2-6)Gal(b1-4)GlcNAc(b1-6)GalNAc
How it was run: as §1

[8] = molecular target: Neu5Ac(a2-6)Gal(b1-4)GlcNAc(b1-6)[Gal(b1-3)GlcNAc(b1-3)]Gal(b1-4)Glc
How it was run: as §1

[9] = molecular target: Neu5Ac(a2-6)Gal(b1-4)GlcNAc(b1-6)[Gal(b1-3)]GalNAc
How it was run: as §1

[10] = molecular target: Neu5Ac(a2-6)Gal(b1-4)GlcNAc6S
How it was run: as §1

[11] = molecular target: Neu5Ac(a2-6)GalNAc
How it was run: as §1

[12] = molecular target: Neu5Ac(a2-6)GalNAc(b1-4)GlcNAc
How it was run: as §1

[13] = molecular target: Neu5Ac(a2-6)GalNAc(b1-4)GlcNAc6S
How it was run: as §1

[14] = molecular target: Neu5Ac(a2-6)GlcNAc(b1-4)GlcNAc
How it was run: as §1

[15] = molecular target: Neu5Ac(a2-6)GlcNAc(b1-4)GlcNAc(b1-4)GlcNAc
How it was run: as §1

[16] = molecular target: Neu5Ac(a2-8)Neu5Ac
How it was run: as §1

[17] = molecular target: Neu5Ac(a2-8)Neu5Ac(a2-3)Gal(b1-3)GalNAc(b1-4)[Neu5Ac(a2-3)]Gal(b1-4)Glc
How it was run: as §1

[18] = molecular target: Neu5Ac(a2-8)Neu5Ac(a2-3)Gal(b1-3)GalNAc(b1-4)[Neu5Ac(a2-8)Neu5Ac(a2-3)]Gal(b1-4)Glc
How it was run: as §1

[19] = molecular target: Neu5Ac(a2-8)Neu5Ac(a2-3)Gal(b1-4)Glc
How it was run: as §1

[20] = molecular target: Neu5Ac(a2-8)Neu5Ac(a2-3)Gal(b1-4)GlcNAc
How it was run: as §1

[21] = molecular target: Neu5Ac(a2-8)Neu5Ac(a2-3)[Gal(b1-3)GalNAc(b1-4)]Gal(b1-4)Glc
How it was run: as §1

[22] = molecular target: Neu5Ac(a2-8)Neu5Ac(a2-3)[GalNAc(b1-4)]Gal(b1-4)Glc
How it was run: as §1

[23] = molecular target: Neu5Ac(a2-8)Neu5Ac(a2-8)Neu5Ac
How it was run: as §1

[24] = molecular target: Neu5Ac(a2-8)Neu5Ac(a2-8)Neu5Ac(a2-3)Gal(b1-4)Glc
How it was run: as §1

[25] = molecular target: Neu5Ac(a2-8)Neu5Ac(a2-8)Neu5Ac(a2-3)[Gal(b1-3)GalNAc(b1-4)]Gal(b1-4)Glc
How it was run: as §1

[26] = molecular target: Neu5Ac(a2-8)Neu5Ac(a2-8)Neu5Ac(a2-3)[GalNAc(b1-4)]Gal(b1-4)Glc
How it was run: as §1

[27] = molecular target: Neu5Ac(a2-8)Neu5Ac(a2-8)Neu5Ac(a2-8)Neu5Ac(a2-3)[GalNAc(b1-4)]Gal(b1-4)Glc
How it was run: as §1

[28] = molecular target: Neu5Ac(a2-8)Neu5Gc(a2-3)Gal(b1-4)GlcNAc
How it was run: as §1

[29] = molecular target: Neu5Ac(b2-6)Gal(b1-4)GlcNAc
How it was run: as §1

[30] = molecular target: Neu5Ac(b2-6)GalNAc
How it was run: as §1

[31] = molecular target: Neu5Ac9Ac(a2-3)Gal(b1-3)GlcNAc
How it was run: as §1

[32] = molecular target: Neu5Ac9Ac(a2-3)Gal(b1-4)GlcNAc
How it was run: as §1

[33] = molecular target: Neu5Ac9Ac(a2-6)Gal(b1-4)GlcNAc
How it was run: as §1

[34] = molecular target: Neu5Gc(a2-3)Gal(b1-3)GlcNAc
How it was run: as §1

[35] = molecular target: Neu5Gc(a2-3)Gal(b1-3)[Fuc(a1-4)]GlcNAc
How it was run: as §1

[36] = molecular target: Neu5Gc(a2-3)Gal(b1-4)Glc
How it was run: as §1

[37] = molecular target: Neu5Gc(a2-3)Gal(b1-4)GlcNAc
How it was run: as §1

[38] = molecular target: Neu5Gc(a2-3)Gal(b1-4)GlcNAc(b1-3)Gal(b1-4)GlcNAc(b1-2)Man(a1-3)[Neu5Gc(a2-3)Gal(b1-4)GlcNAc(b1-3)Gal(b1-4)GlcNAc(b1-2)Man(a1-6)]Man(b1-4)GlcNAc(b1-4)GlcNAc
How it was run: as §1

[39] = molecular target: Neu5Gc(a2-3)Gal(b1-4)[Fuc(a1-3)]GlcNAc
How it was run: as §1

[40] = molecular target: Neu5Gc(a2-6)Gal(b1-4)GlcNAc
How it was run: as §1

[41] = molecular target: Neu5Gc(a2-6)GalNAc
How it was run: as §1

[42] = molecular target: Neu5Gc(a2-8)Neu5Ac(a2-3)Gal(b1-4)GlcNAc
How it was run: as §1

[43] = molecular target: Neu5Gc(a2-8)Neu5Gc(a2-3)Gal(b1-4)GlcNAc
How it was run: as §1

[44] = molecular target: Neu5Gc(a2-8)Neu5Gc(a2-3)Gal(b1-4)GlcNAc(b1-3)Gal(b1-4)GlcNAc
How it was run: as §1

[45] = molecular target: Neu5Gc(a2-8)Neu5Gc(a2-6)Gal(b1-4)GlcNAc
How it was run: as §1

[46] = molecular target: Neu5Gc(b2-6)Gal(b1-4)GlcNAc
How it was run: as §1

B1: AntigenI/IIA3VP1 (Streptococcus mutans), C9E3B4 (protein)
chain: AANEADYQAKLTAYQTELARVQKANADAKAAYEAAVAANNAANAALTAENTAIKKRNADAKADYEAKLAKYQADLAKYQKDLADYPVKLKAYEDEQASIKAALAELEKHKNEDGNLTEPSAQNLVYDLEPNANLSLTTDGKFLKASAVDDAFSKSTSKAKYDQKILQLDDLDITNLEQSNDVASSMELYGNFGDKAGWSTTVSNNSQVKWGSVLLERGQSATATYTNLQNSYYNGKKISKIVYKYTVDPKSKFQGQKVWLGIFTDPTLGVFASAYTGQVEKNTSIFIKNEFTFYDEDGKPINFDNALLSVASLNREHNSIEMAKDYSGKFVKISGSSIGEKNGMIYATDTLNFKQGEGGSRWTMYKNSQAGSGWDSSDAPNSWYGAGAIKMSGPNNYVTVGATSATNVMPVSDMPVVPGKDNTDGKKPNIWYSLNGKIRAVNVPKVTKEKPTPPVKPTAPTKPTYETEKPLKPAPVAPNYEKEPTPPTRLEHHHHHH
glycan array binding signal (z-score) [1]: -0.349
glycan array binding signal (z-score) [2]: 0.793
glycan array binding signal (z-score) [3]: 0.306
glycan array binding signal (z-score) [4]: 0.247
glycan array binding signal (z-score) [5]: 0.206
glycan array binding signal (z-score) [6]: -1.08
glycan array binding signal (z-score) [7]: 0.255
glycan array binding signal (z-score) [8]: -0.28
glycan array binding signal (z-score) [9]: -1.32
glycan array binding signal (z-score) [10]: 1.06
glycan array binding signal (z-score) [11]: -0.371
glycan array binding signal (z-score) [12]: -1.17
glycan array binding signal (z-score) [13]: -0.77
glycan array binding signal (z-score) [14]: -0.598
glycan array binding signal (z-score) [15]: -0.713
glycan array binding signal (z-score) [16]: -0.381
glycan array binding signal (z-score) [17]: 0.241
glycan array binding signal (z-score) [18]: -0.035
glycan array binding signal (z-score) [19]: -0.254
glycan array binding signal (z-score) [20]: -0.757
glycan array binding signal (z-score) [21]: -0.073
glycan array binding signal (z-score) [22]: 0.407
glycan array binding signal (z-score) [23]: -0.735
glycan array binding signal (z-score) [24]: -0.757
glycan array binding signal (z-score) [25]: 0.119
glycan array binding signal (z-score) [26]: 0.775
glycan array binding signal (z-score) [27]: 0.749
glycan array binding signal (z-score) [28]: -0.976
glycan array binding signal (z-score) [29]: 0.331
glycan array binding signal (z-score) [30]: -1.14
glycan array binding signal (z-score) [31]: -1.54
glycan array binding signal (z-score) [32]: -1.29
glycan array binding signal (z-score) [33]: -0.505
glycan array binding signal (z-score) [34]: -0.716
glycan array binding signal (z-score) [35]: -0.885
glycan array binding signal (z-score) [36]: -0.071
glycan array binding signal (z-score) [37]: -0.465
glycan array binding signal (z-score) [38]: 1.88
glycan array binding signal (z-score) [39]: 0.707
glycan array binding signal (z-score) [40]: 0.798
glycan array binding signal (z-score) [41]: 0.494
glycan array binding signal (z-score) [42]: 1.66
glycan array binding signal (z-score) [43]: -0.703
glycan array binding signal (z-score) [44]: -1.17
glycan array binding signal (z-score) [45]: -1.3
glycan array binding signal (z-score) [46]: 1.01
